Experimental data taken from article PMC9501810, “Bitter Peptides YFYPEL, [sequence], and [sequence], Released during Gastric Digestion of Casein, Stimulate Mechanisms of Gastric Acid Secretion via Bitter Taste Receptors TAS2R16 and TAS2R38” (Journal of Agricultural and Food Chemistry, 2022).

Tests used:
pepsin = assay: In vitro gastric digestion of casein with targeted UHPLC-MS/MS-MRM quantitation of peptides; type: in vitro ADME, porcine; conditions: SGF pH 3 with pepsin, 37 °C, related to the respective casein variant, n = 4
Protocol: The in vitro digestion was based on the Nature protocol established by Brodkorb et al.([30]) For this, simulated salivary fluid (SSF, containing 15.1 mM KCl, 3.7 mM KH2PO4, 13.6 mM NaHCO3, 0.15 mM MgCl2(H2O)6, 0.06 mM (NH4)2CO3, 1.1 mM HCl, and 1.5 mM CaCl2(H2O)2) and simulated gastric fluid (SGF, containing 6.9 mM KCl, 0.9 mM KH2PO4, 25.0 mM NaHCO3, 47.2 mM NaCl, 0.12 mM MgCl2(H2O)6, 0.5 mM (NH4)2CO3, 15.6 mM HCl, and 0.15 mM CaCl2(H2O)2) were prepared. A total amount of 100 mg casein was suspended in 3 mL of SSF and incubated for 5 min at 37 °C in the tube rotator. After taking a sample (500 μL, t = 0 h), 2 mL of SGF was added and the pH was adjusted to 3 with 100 μL of HCl (1 M). After addition of 125 μL of pepsin solution (80,000 U/mL in 10 mM HCl), 275 μL of H2O was added to fill up to 5 mL. This was followed by further incubation at 37 °C in a tube rotator for 6 h. 500 μL of samples was taken at 0.25, 0.5, 0.75, 1, 2, 3, 4, 5, and 6 h, respectively. The samples were frozen in liquid nitrogen and stored at −80 °C until further analysis. For MS experiments, all samples were diluted 1:1 with 10% MeCN.
All targeted proteomics LC–MS/MS measurements were performed using a Sciex ExionLC AC (Sciex, Darmstadt, Germany) coupled to a 6500+ QTrap LC–MS/MS system (Sciex, Darmstadt, Germany) operating in the positive electrospray ionization mode. Data acquisition and instrumentation control were performed with AnalystTF software (v 1.7.1; Sciex, Darmstadt, Germany). Separation was performed using a 100 × 2.1 mm, 1.7 μm, Kinetex C18 column (Phenomenex, Aschaffenburg, Germany) with a guard column of the same type with 0.1% aqueous formic acid and acetonitrile containing 0.1% formic acid at a flow rate of 0.25 mL/min. […] For the preparation of the calibration curves, five peptides were dissolved individually in D2O (600 μL) and the concentration of the stock solutions was determined by qNMR.[35] […] The data were analyzed using MultiQuant software (v 3.0.3; Sciex, Darmstadt, Germany).

[1] = In vivo gastric digestion of casein in pigs, peptides in stomach content; conditions: pigs fed 1 g casein in 5 mL H2O, stomach content after 2 h, normalized to 100 mL gastric volume; UHPLC–MS/MS-MRM; mean ± SEM, n = 6

Row | Substance | release rate related to αS1- or β-casein after 2 h of in vitro digestion (pepsin) | concentration in stomach content after in vivo digestion [1]
1 | PVVVPPFLQPEVM [bitter casein peptide βA1/A2-CN81–93] | 65.5% | 
2 | YFYPEL [bitter casein peptide αS1-CN144–149] | 19.3% | 0.91 ± 0.03 µM
3 | YQEPVLGPVRGPFPIIV [bitter casein peptide βA1/A2-CN193–209] | ~100% | 
4 | YYVPLGTQ [bitter casein peptide αS1-CN165–172] |  | 10.30 ± 0.38 µM
